Results are given in words; binding and its absence hold for the method and conditions named. Binding seen in cells or lysates may run through a third protein. Binding can be weak; no strength is given.
T1: recombinant mambalgin-2 from Dendroaspis polylepis (Dendroaspis polylepis) (UniProt P0DKS3)
T1 sequence: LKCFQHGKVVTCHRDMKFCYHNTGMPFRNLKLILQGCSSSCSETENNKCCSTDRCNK

B1: α-ENaC subunit (epithelial Na+ channel alpha) (protein, UniProt P37088 1-669)
chain: MEGNKLEEQDSSPPQSTPGLMKGNKREEQGLGPEPAAPQQPTAEEEALIEFHRSYRELFEFFCNNTTIHGAIRLVCSQHNRMKTAFWAVLWLCTFGMMYWQFGLLFGEYFSYPVSLNINLNSDKLVFPAVTICTLNPYRYPEIKEELEELDRITEQTLFDLYKYSSFTTLVAGSRSRRDLRGTLPHPLQRLRVPPPPHGARRARSVASSLRDNNPQVDWKDWKIGFQLCNQNKSDCFYQTYSSGVDAVREWYRFHYINILSRLPETLPSLEEDTLGNFIFACRFNQVSCNQANYSHFHHPMYGNCYTFNDKNNSNLWMSSMPGINNGLSLMLRAEQNDFIPLLSTVTGARVMVHGQDEPAFMDDGGFNLRPGVETSISMRKETLDRLGGDYGDCTKNGSDVPVENLYPSKYTQQVCIHSCFQESMIKECGCAYIFYPRPQNVEYCDYRKHSSWGYCYYKLQVDFSSDHLGCFTKCRKPCSVTSYQLSAGYSRWPSVTSQEWVFQMLSRQNNYTVNNKRNGVAKVNIFFKELNYKTNSESPSVTMVTLLSNLGSQWSLWFGSSVLSVVEMAELVFDLLVIMFLMLLRRFRSRYWSPGRGGRGAQEVASTLASSPPSHFCPHPMSLSLSQPGPAPSPALTAPPPAYATLGPRPSPGGSAGASSSTCPLGGP
B2: γ-ENaC subunit (epithelial Na+ channel gamma) (protein, UniProt P51170 1-649)
chain: MAPGEKIKAKIKKNLPVTGPQAPTIKELMRWYCLNTNTHGCRRIVVSRGRLRRLLWIGFTLTAVALILWQCALLVFSFYTVSVSIKVHFRKLDFPAVTICNINPYKYSTVRHLLADLEQETREALKSLYGFPESRKRREAESWNSVSEGKQPRFSHRIPLLIFDQDEKGKARDFFTGRKRKVGGSIIHKASNVMHIESKQVVGFQLCSNDTSDCATYTFSSGINAIQEWYKLHYMNIMAQVPLEKKINMSYSAEELLVTCFFDGVSCDARNFTLFHHPMHGNCYTFNNRENETILSTSMGGSEYGLQVILYINEEEYNPFLVSSTGAKVIIHRQDEYPFVEDVGTEIETAMVTSIGMHLTESFKLSEPYSQCTEDGSDVPIRNIYNAAYSLQICLHSCFQTKMVEKCGCAQYSQPLPPAANYCNYQQHPNWMYCYYQLHRAFVQEELGCQSVCKEACSFKEWTLTTSLAQWPSVVSEKWLLPVLTWDQGRQVNKKLNKTDLAKLLIFYKDLNQRSIMESPANSIEMLLSNFGGQLGLWMSCSVVCVIEIIEVFFIDFFSIIARRQWQKAKEWWAWKQAPPCPEAPRSPQGQDNPALDIDDDLPTFNSALHLPPALGTQVPGTPPPKYNTLRLERAFSNQLTDTQMLDEL

How the values were obtained:
[1] = target: T1, recombinant mambalgin-2 from Dendroaspis polylepis (Dendroaspis polylepis); assay: pull-down; mambalgin-2 (1 mg/ml) coupled to NHS-activated Sepharose 4 Fast Flow; membrane fraction of A549 cells solubilized in 2% Triton X-100, diluted 10 times with TBS pH 8.0, 16 h at 4°C; washes incl. TBS + 1 M NaCl + 0.5% Triton X-100; elution 200 mM glycine pH 2.6; Western blot; only the target purified
[2] = target: ASIC1a subunit (acid-sensing ion channel 1a) (human (endogenous in A549)); assay: co-IP; anti-ASIC1a antibody (sheep, ABIN350049) on Protein-A agarose; pre-cleared membrane fraction of A549 cells solubilized in 2% Triton X-100, 16 h at 4°C in TBS; washes incl. TBS + 1 M NaCl + 0.5% Triton X-100; Western blot for α-ENaC and γ-ENaC

Molecule | binding [1] | binding [2]
ASIC1a subunit (acid-sensing ion channel 1a) (human (endogenous in A549)) | binds | –
B1 | – | binds
B2 | – | binds
